Some entries share one result that the patent states for a list of compounds.
System: MCP-1 induced THP-1 cell migration
Experiment: Inhibition of MCP-1 induced leukocyte migration (transwell migration assay)
Type: cell-based, human
Settings: inhibition of MCP-1 induced THP-1 cell migration, dose-response curves
Method: In principle, this assay consists of two chambers separated by a porous membrane. The chemoattractant is placed in the lower compartment and the cells are placed in the upper compartment. After incubation for a period at 37° C. the cells move towards the chemoattractant, and the number of cells in the lower compartment is proportional to the chemoattractant activity (relative to a series of controls). The THP-1 cell line (European Cell culture Collection) were used as the leukocyte cell population. The following procedure is used for testing the invention compounds for MCP-1 induced leukocyte migration: First, the cell suspension to be placed in the upper compartment is prepared. The THP-1 cells are pelleted by centrifugation (770×g; 4 mins) and washed with Geys Balanced Salt Solution with 1 mg/ml BSA (GBSS+BSA). This wash is then repeated, and the cells repelleted before being resuspended in a small volume of GBSS+BSA for counting, for example using a standard haemocytometer. The volume of GBSS+BSA is then adjusted depending on the number of cells present so that the cells are at final density of 4.45×10^6 cells per ml of GBSS+BSA. […] The number of cells migrated into the lower chamber under each condition can then be determined by a number of methods, including direct counting, labelling with fluorescent or radioactive markers or through the use of a vital dye. […]

Substance: (S)-3-hexadecanoylamino-caprolactam [Example 1]
- (S)-enantiomer more active than the (R)-enantiomer: 10-50 fold

Source: patent US20080227724A1, “Anti-Inflammatory Agents” (CAMBRIDGE UNIVERSITY TECHNICAL SERVICES LIMITED, priority 2003, published 2008)
